The text below walks through data of article doi:10.1101/2022.07.20.500667.

Results are given in words; binding and its absence hold for the method and conditions named. Sequences can lack the tags named with a protein.

Assay [1] deals with arginyltransferase 1 (ATE1) from Saccharomyces cerevisiae, apo (Saccharomyces cerevisiae) (UniProt P16639). Description: SEC-MALS.
Assay [2] shares this target. The assay can be described thus: SEC.

B1: arginyltransferase 1 (ATE1) from Saccharomyces cerevisiae, apo (enzyme, UniProt P16639 1-502)
chain: MSDRFVIWAPSMHNEPAAKCGYCHGNKGGNMDQLFALDSWAHRYMNKMDVVKIENCTIGSFVEHMDVATYDRMCNMGFRRSGKFLYKVDPLRNCCRLYTIRTAPQELNMTKELKKCISRFATRITSEDYCPAAVASSDFVGKIVNAEMNSKTFYTRFEPALYSEEKYHLFVKYQEKVHQDYNNSPKSFKRFLCDTPFGPEAVLGTQESWEQLNNWQRMKPGEKLKHMGPVHECYYYEGKLIAITVSDILPSGISSVYFIWDPDYSKWSLGKLSALRDLAIIQRTNLQYYYLGYYIEDCPKMNYKANYGAEVLDVCHSKYIPLKPIQDMISRGKLFVIGEEETKVTKELYLVDSETGRGEGFPTDNVVKYKNIAEEIYGVGGCAFKSANESALELKELYGIPYEEEDLDTIYHLKEHNGHAPNGIPNVVPGLLPLWELLDIMQSGKITDLEGRLFLFEIETEGIRPLINFYSEPPNVKKRICDVIRLFGFETCMKAVILYSEQ
On to B1, for which the binding result is “no binding (tested: 2-8 mg/mL)” in assay [1] and “no binding” in assay [2].
